Our source for the binding values is paper PMC9950432.

These are yes or no findings as the source states them, for the method shown. A result given as binding can be weak or reduced; the word gives no strength. Where a sequence is shown, tags or fusion partners need not be part of it.

For this assay, the target named is human PD-L1/CD274-glutathione-S-transferase (GST) fusion protein (human). The assay can be described thus: pull-down; GST pull-down with the Pierce GST Protein Interaction Pull-Down Kit; recombinant GST-PD-L1 as bait, USP8-His as prey, recombinant human GST as control; both purified.

B1: human USP8-6*His fusion protein (enzyme, UniProt P40818 1-1118)
chain: MPAVASVPKELYLSSSLKDLNKKTEVKPEKISTKSYVHSALKIFKTAEECRLDRDEERAYVLYMKYVTVYNLIKKRPDFKQQQDYFHSILGPGNIKKAVEEAERLSESLKLRYEEAEVRKKLEEKDRQEEAQRLQQKRQETGREDGGTLAKGSLENVLDSKDKTQKSNGEKNEKCETKEKGAITAKELYTMMTDKNISLIIMDARRMQDYQDSCILHSLSVPEEAISPGVTASWIEAHLPDDSKDTWKKRGNVEYVVLLDWFSSAKDLQIGTTLRSLKDALFKWESKTVLRNEPLVLEGGYENWLLCYPQYTTNAKVTPPPRRQNEEVSISLDFTYPSLEESIPSKPAAQTPPASIEVDENIELISGQNERMGPLNISTPVEPVAASKSDVSPIIQPVPSIKNVPQIDRTKKPAVKLPEEHRIKSESTNHEQQSPQSGKVIPDRSTKPVVFSPTLMLTDEEKARIHAETALLMEKNKQEKELRERQQEEQKEKLRKEEQEQKAKKKQEAEENEITEKQQKAKEEMEKKESEQAKKEDKETSAKRGKEITGVKRQSKSEHETSDAKKSVEDRGKRCPTPEIQKKSTGDVPHTSVTGDSGSGKPFKIKGQPESGILRTGTFREDTDDTERNKAQREPLTRARSEEMGRIVPGLPSGWAKFLDPITGTFRYYHSPTNTVHMYPPEMAPSSAPPSTPPTHKAKPQIPAERDREPSKLKRSYSSPDITQAIQEEEKRKPTVTPTVNRENKPTCYPKAEISRLSASQIRNLNPVFGGSGPALTGLRNLGNTCYMNSILQCLCNAPHLADYFNRNCYQDDINRSNLLGHKGEVAEEFGIIMKALWTGQYRYISPKDFKITIGKINDQFAGYSQQDSQELLLFLMDGLHEDLNKADNRKRYKEENNDHLDDFKAAEHAWQKHKQLNESIIVALFQGQFKSTVQCLTCHKKSRTFEAFMYLSLPLASTSKCTLQDCLRLFSKEEKLTDNNRFYCSHCRARRDSLKKIEIWKLPPVLLVHLKRFSYDGRWKQKLQTSVDFPLENLDLSQYVIGPKNNLKKYNLFSVSNHYGGLDGGHYTAYCKNAARQRWFKFDDHEVSDISVSSVKSSAAYILFYTSLGPRVTDVAT
For the molecule B1, the binding entry is “binds”.
